Measured data: PubChem BioAssay AID504764 (Drosophila RNAi Screening Center, 2011)
Assay: 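Genes whose knock-down alters Notch-dependent transcription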 (primary screen). Cell system: Drosophila Kc167 cells. Reagents: long dsRNA against Drosophila genes. Duration: about 5 days (4 days dsRNA, then 24 h after transfection). Conditions: transfection of constitutively active membrane-tethered Notch lacking the extracellular domain, read 24 h later. Read-out: 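Light from a Notch-responsive E(spl)m3 luciferase reporter under active Notch, with control-promoter and no-Notch reporter wells to normalise; raw counts from paired wells a and b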. Reading the numbers: induced reporter light, run 1, well a and induced reporter light, run 1, well b: higher = more light from the Notch target reporter with active Notch; control promoter light, run 1, well a and control promoter light, run 1, well b: higher = more light from the viral control promoter (cell number, transfection, viability); uninduced reporter light, run 1, well a: higher = more light from the Notch target reporter without active Notch. Hit rule: 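Hit if the duplicate-averaged log2 ratio of induced to control-promoter light gives a plate-wise z beyond ±2, or induced to uninduced beyond ±1.8; weak-control or discordant-duplicate wells dropped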. Calls: active = modifier hit (raised or lowered Notch signal); inactive = not a hit.
The deposit covers about 22,000 reagents; this is an unselected part of those that have a named target and a result. Over the whole deposit, 403 (1.9%) are marked active. 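Unnormalised raw counts per well; ratio z-scores behind the hit calls and whether each hit raises or lowers signal are not deposited.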 Names joined by + are all predicted targets of the reagent. No sequences are given here. Not given: the amount of reagent.

gene knocked down,DRSC id,"induced reporter light, run 1, well a","induced reporter light, run 1, well b","control promoter light, run 1, well a","control promoter light, run 1, well b","uninduced reporter light, run 1, well a",activity call
kcc (kazachoc),DRSC04316,1.96e5,2.14e5,1.97e5,2.10e5,17955,inactive
kcc (kazachoc),DRSC04516,2.24e5,1.88e5,1.84e5,1.56e5,13900,inactive
CG7567,DRSC16258,97280,1.12e5,1.61e5,1.59e5,9360,inactive
stum (stumble),DRSC04268,47965,54405,46455,46280,1892,inactive
stum (stumble),DRSC04270,50995,52040,52270,42720,3735,inactive
Hydr1 (alpha/beta hydrolase 1),DRSC07063,1.40e5,1.41e5,2.37e5,2.38e5,12140,inactive
PI31 (Proteasome inhibitor 31 kDa),DRSC07306,1.12e5,1.15e5,90120,99090,9392,inactive
CG4325,DRSC18516,9990,11465,11005,13535,4070,inactive
RpL24 (Ribosomal protein L24),DRSC03185,15765,17935,19085,17738,1675,inactive
CG16741,DRSC06622,1.24e5,1.04e5,1.58e5,1.81e5,10495,inactive
CG31955,DRSC00285,1.77e5,1.75e5,2.05e5,1.99e5,10635,inactive
Xport-A + Xport-B,DRSC15586,1.46e5,1.61e5,1.91e5,2.39e5,13655,inactive
ppk23 (pickpocket 23),DRSC20110,40375,50155,50590,57120,7350,inactive
CAH9 (Carbonic anhydrase 9),DRSC15963,1.69e5,1.54e5,2.18e5,1.91e5,13720,inactive
CG42241 (retired record),DRSC04007,1.50e5,1.50e5,2.87e5,2.79e5,10275,inactive
CG5056,DRSC02808,96355,1.39e5,63900,76360,16465,inactive
CG13010,DRSC19529,85560,65585,89390,83075,7575,inactive
CG1958,DRSC18196,1.54e5,1.63e5,2.55e5,2.76e5,11475,inactive
CG5024,DRSC15698,2.14e5,2.05e5,2.16e5,2.18e5,17578,inactive
CG15365,DRSC18038,5615,5925,9170,10540,2455,inactive
CG1648,DRSC06610,1.49e5,1.38e5,1.62e5,1.33e5,14025,inactive
CG6659,DRSC20003,1.26e5,97125,85365,64070,7370,inactive
CG34001,DRSC09042,2.86e5,2.12e5,2.83e5,2.70e5,16545,inactive
CG13614,DRSC14617,1.93e5,1.72e5,2.08e5,2.05e5,15250,inactive
Tektin-A (Tektin A),DRSC01921,2.58e5,2.03e5,1.69e5,2.07e5,14630,inactive
Pgk (Phosphoglycerate kinase),DRSC00769,1.27e5,97880,91925,54175,9115,inactive
CG34188,DRSC05549,1.62e5,1.71e5,2.74e5,2.58e5,18290,inactive
sofe,DRSC19751,1.97e5,1.92e5,2.42e5,2.62e5,16185,inactive
CG5888,DRSC01929,1.71e5,1.78e5,1.79e5,1.74e5,15245,inactive
Odc2 (Ornithine decarboxylase 2),DRSC07483,2.23e5,1.81e5,2.66e5,2.23e5,18195,inactive

The list goes on, starting with the last 9 of the part before.
gene knocked down,DRSC id,"induced reporter light, run 1, well a","induced reporter light, run 1, well b","control promoter light, run 1, well a","control promoter light, run 1, well b","uninduced reporter light, run 1, well a",activity call
CG6659,DRSC20003,1.26e5,97125,85365,64070,7370,inactive
CG34001,DRSC09042,2.86e5,2.12e5,2.83e5,2.70e5,16545,inactive
CG13614,DRSC14617,1.93e5,1.72e5,2.08e5,2.05e5,15250,inactive
Tektin-A (Tektin A),DRSC01921,2.58e5,2.03e5,1.69e5,2.07e5,14630,inactive
Pgk (Phosphoglycerate kinase),DRSC00769,1.27e5,97880,91925,54175,9115,inactive
CG34188,DRSC05549,1.62e5,1.71e5,2.74e5,2.58e5,18290,inactive
sofe,DRSC19751,1.97e5,1.92e5,2.42e5,2.62e5,16185,inactive
CG5888,DRSC01929,1.71e5,1.78e5,1.79e5,1.74e5,15245,inactive
Odc2 (Ornithine decarboxylase 2),DRSC07483,2.23e5,1.81e5,2.66e5,2.23e5,18195,inactive
Sod3 (Superoxide dismutase 3),DRSC07324,1.25e5,1.28e5,1.24e5,1.12e5,11995,inactive
CG13171,DRSC06299,87805,95620,1.25e5,1.29e5,9205,inactive
spz (spatzle),DRSC17065,1.75e5,1.67e5,2.24e5,2.38e5,14335,inactive
Cpr73D (Cuticular protein 73D),DRSC11084,98830,1.38e5,81680,81530,9010,inactive
Cby (Chibby),DRSC14591,1.45e5,1.74e5,1.99e5,1.86e5,10690,inactive
hog,DRSC19057,1.02e5,1.10e5,1.09e5,1.09e5,9790,inactive
CG6497,DRSC10654,2.50e5,2.78e5,3.26e5,2.65e5,12238,inactive
CG6497,DRSC21469,,,,,,inactive
CG7551,DRSC10876,98635,72620,1.30e5,71035,6465,inactive
trk (trunk),DRSC03625,1.24e5,1.26e5,71640,90575,15220,inactive
Sik3 (Salt-inducible kinase 3),DRSC06505,31020,36515,45930,37485,3240,inactive
Sik3 (Salt-inducible kinase 3),DRSC06771,77550,78305,1.48e5,1.36e5,6045,inactive
Vps33B (Vacuolar protein sorting 33B),DRSC15722,1.90e5,2.24e5,2.86e5,2.81e5,17225,inactive
eIF4E7 (eukaryotic translation initiation factor 4E7),DRSC17782,99670,1.02e5,2.28e5,1.90e5,7895,inactive
eIF4E7 (eukaryotic translation initiation factor 4E7),DRSC18623,1.02e5,93770,1.69e5,1.86e5,8655,inactive
CG18747,DRSC15384,80335,1.03e5,77565,61100,3578,inactive
CG5122,DRSC02816,1.38e5,1.40e5,1.33e5,1.50e5,12000,inactive
Kpc2 (Kip1 ubiquitination-promoting complex subunit 2),DRSC07635,32125,31205,37995,30270,2995,inactive
CG10801,DRSC17761,1.57e5,1.35e5,2.34e5,2.26e5,10735,inactive
CG16978,DRSC02553,1.33e5,1.56e5,1.42e5,1.55e5,12680,inactive
GluClalpha (Glutamate-gated chloride channel subunit alpha),DRSC16680,2.43e5,2.15e5,2.26e5,2.18e5,14205,inactive
CG17658,DRSC04292,1.66e5,1.68e5,1.71e5,1.70e5,12965,inactive
CG13482,DRSC10024,1.71e5,2.06e5,87340,1.16e5,9865,inactive
l(2)09851 (lethal (2) 09851),DRSC04858,1.49e5,1.52e5,1.45e5,1.58e5,11600,inactive
Cul6 (Cullin 6),DRSC09830,1.22e5,1.17e5,96165,82830,12805,inactive
CG32021 (retired record),DRSC17206,1.20e5,1.22e5,2.15e5,2.05e5,8305,inactive
CG5274,DRSC11774,1.19e5,1.43e5,72335,76590,12595,inactive
CG31019,DRSC13994,41335,54905,86365,75685,4955,active
CG14022,DRSC02352,1.28e5,1.10e5,1.23e5,1.58e5,7460,inactive
RluA-2 (RluA pseudouridine synthase 2),DRSC02939,1.92e5,2.15e5,1.84e5,1.51e5,12745,inactive
Drep2 (DNA fragmentation factor-related protein 2),DRSC07528,1.40e5,1.84e5,1.17e5,1.08e5,11795,inactive
Egfr (Epidermal growth factor receptor),DRSC03871,91710,88335,73480,88025,10270,inactive
Egfr (Epidermal growth factor receptor),DRSC04613,1.80e5,2.27e5,1.83e5,1.69e5,14965,inactive
CG34286,DRSC13372,96930,99835,1.33e5,98735,10650,inactive
